Reference: patent US20220096509A1, “Reformulating Hospital Gentamicin to reduce the risk of hearing loss while maintaining antimicrobial activity” (priority 2019, published 2022)
At least one structure is not confirmed: it was looked up by name or label, or the drawing left a doubt. Some of these results come from one statement about several compounds together.

Test system: S. aureus, E. coli, K. pneumoniae, P. aeruginosa strains
Assay: Antimicrobial breadth and potency (MIC) across 40 bacterial strains
Type: cell-based
Excerpt: The colors represent different species, the numbers in the columns refer to the number of individual strains inhibited, where black=S. aureus, grey=E. coli, blue=K. pneumoniae, white=P. aeruginosa. […] (2B) The MIC values for each strain (diamond symbols) split by species, where Hospital=red, C1=orange, blue=C1a, cyan=C2, green=C2a, purple=C2b (grey scale only). Filled symbols indicate strains with antimicrobial resistance. The box indicates the 25-75 percentiles, stars indicate geometric means, *=P<0.05, **=P<0.01 tested using Mann Whitney U Non-Parametric analysis. […] (2C) The antimicrobial breadths of the impurities relative to a hospital bottle. […] (2D) The MIC values for each strain split by species.
The antimicrobial activity of the main components of gentamicin were studied relative to a single hospital bottle (gentamicin mixture) from Stanford University Hospital.

With `CN[C@@H]1[C@@H](O)[C@@H](O[C@@H]2[C@@H](O)[C@H](O[C@H]3O[C@H]([C@@H](C)O)[C@@H](O)[C@H](O)[C@H]3N)[C@@H](N)C[C@H]2N)OC[C@]1(C)O` [G418, geneticin] the “number of strains inhibited (antimicrobial breadth)” value was 15-21 strains and the “antimicrobial potency relative to hospital bottle” value (all species tested, P<0.05, n≥8 strains) was “significantly less potent than the hospital bottle”.
